No constants are given. Whether binding was seen depends on the method and setting. Binding seen in cells or lysates may run through a third protein. Some binding calls cover weakened binding; strength is not graded here. Sequences can lack the tags named with a protein.

Sequences of proteins named here, by UniProt entry; tags and fusion partners are left off.
UniProt Q62120: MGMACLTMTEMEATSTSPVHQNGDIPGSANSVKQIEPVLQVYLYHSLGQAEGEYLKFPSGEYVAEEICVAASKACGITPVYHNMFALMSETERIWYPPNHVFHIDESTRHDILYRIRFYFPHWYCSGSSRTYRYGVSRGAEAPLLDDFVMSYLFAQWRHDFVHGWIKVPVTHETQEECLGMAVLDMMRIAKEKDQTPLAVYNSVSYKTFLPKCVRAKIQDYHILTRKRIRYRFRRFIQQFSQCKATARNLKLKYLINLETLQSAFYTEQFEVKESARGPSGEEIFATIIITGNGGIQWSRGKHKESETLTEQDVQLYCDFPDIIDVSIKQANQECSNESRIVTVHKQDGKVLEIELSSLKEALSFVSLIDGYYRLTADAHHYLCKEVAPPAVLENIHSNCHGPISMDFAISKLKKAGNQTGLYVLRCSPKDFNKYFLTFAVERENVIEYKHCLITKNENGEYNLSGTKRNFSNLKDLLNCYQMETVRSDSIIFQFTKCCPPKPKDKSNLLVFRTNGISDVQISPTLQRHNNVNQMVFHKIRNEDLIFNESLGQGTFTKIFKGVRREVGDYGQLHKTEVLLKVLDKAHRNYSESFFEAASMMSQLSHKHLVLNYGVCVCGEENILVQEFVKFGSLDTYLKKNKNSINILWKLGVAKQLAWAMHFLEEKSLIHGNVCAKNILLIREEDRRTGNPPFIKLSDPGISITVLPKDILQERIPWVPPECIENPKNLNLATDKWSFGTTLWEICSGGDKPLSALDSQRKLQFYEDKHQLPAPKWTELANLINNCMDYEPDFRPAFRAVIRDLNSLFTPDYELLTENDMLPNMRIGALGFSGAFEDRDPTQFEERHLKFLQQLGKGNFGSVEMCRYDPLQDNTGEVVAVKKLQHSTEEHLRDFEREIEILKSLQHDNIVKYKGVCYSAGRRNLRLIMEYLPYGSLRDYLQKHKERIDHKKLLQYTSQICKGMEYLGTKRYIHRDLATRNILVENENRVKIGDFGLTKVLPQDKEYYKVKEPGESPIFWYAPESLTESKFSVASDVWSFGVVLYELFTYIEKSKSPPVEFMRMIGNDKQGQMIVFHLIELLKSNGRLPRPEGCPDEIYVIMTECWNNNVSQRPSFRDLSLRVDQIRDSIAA

Experiment [1] has as its target T1, Atoh1-nYFP (mouse) (UniProt P48985).
T1 sequence: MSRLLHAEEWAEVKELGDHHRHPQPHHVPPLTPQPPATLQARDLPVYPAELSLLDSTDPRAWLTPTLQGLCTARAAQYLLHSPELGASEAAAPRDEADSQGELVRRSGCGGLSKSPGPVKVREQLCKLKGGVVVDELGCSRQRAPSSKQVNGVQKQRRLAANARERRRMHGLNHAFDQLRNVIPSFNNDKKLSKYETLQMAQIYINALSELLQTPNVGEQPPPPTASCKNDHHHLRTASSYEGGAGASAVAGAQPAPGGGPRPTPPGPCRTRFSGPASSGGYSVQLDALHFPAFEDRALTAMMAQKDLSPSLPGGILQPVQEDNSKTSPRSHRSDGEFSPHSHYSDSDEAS
Description: split reporter; BiFC in DAOY cells transfected with Atoh1-nYFP and a kinase-cYFP; GFP signal read by flow cytometry; n = 3. On the technique in general: Flow cytometry measures light scatter and fluorescence of single cells or particles in a stream.

The target of experiment [2] is T2, Atoh1-GFP (knock-in, in mouse tissue) (mouse (endogenous knock-in in Nd2::SmoA1 tumours and cerebellum)) (UniProt P48985).
T2 sequence: T1 sequence
Description: co-IP; IP of Jak2 (anti-Jak2) or Atoh1 (anti-GFP) from normal P5 cerebellar tissue.

The target of experiment [3] is T2, Atoh1-GFP (knock-in, in mouse tissue) (mouse (endogenous knock-in in Nd2::SmoA1 tumours and cerebellum)). In words: co-IP; IP of Jak2 (anti-Jak2) or Atoh1 (anti-GFP) from medulloblastoma tumor tissue.

As for “Jak2-cYFP (from UniProt Q62120 1-1132) (enzyme)”, the binding result in experiment [1] is “binds”.
On to “Janus kinase 2 (Jak2) (from UniProt Q62120 1-1132) (enzyme)”, for which the binding result is “no binding (condition: in normal P5 cerebellar tissue)” in experiment [2] and “binds” in experiment [3].

(Values after article PMC5736349.)
